The nature of data set [1]: Comparative UV spectrophotometric analysis before and after formation of microspheres. The data set is classed as physicochemical. Particulars: starting materials (crystals) vs microspheres obtained by spray-freezing; ethanol for 17-beta-estradiol and cholesterol, 0.1N HCl for the others. The text has this: (§1) It is necessary to check that no chemical damage of the substances occurs during the spray-freezing process, which could modify their therapeutic properties. The starting materials (crystals) and the microspheres obtained by spray-freezing are compared by UV and IR spectrophotometry. UV spectras shall always be superimposable and IR spectras shall correspond. If differences in infrared spectras appear, it shall be checked if they are due to a polymorphism phenomenon, by means of an HPLC setup with diode-array detection. Differential thermal analysis is also used, not only to check the melting points, but also to determine if endothermic or exothermic transitions occur, due either to structure modifications or to a polymorphism, which may influence the microsphere information process, or due to heat-induced chemical reactions.
Equipment used in ultraviolet spectrography: Hewlett Packard model 8452A with photodiode arrangement and quartz cell with a beam of 0.1 cm.

Data set [2] can be described thus: Comparative infrared spectrophotometry (FT-IR, with HPLC diode-array) before and after formation of microspheres. In kind it is physicochemical. Particulars: after the formation of microspheres; potassium bromide dispersion.
Excerpt: as §1
Equipment used in infrared spectrophotometry: Nicolet 205 FT-IR. Dispersion medium: potassium bromide. Chromatography: HPLC device with photo diode-array detector, model Waters 990 and Nec powermate 2 workstation.

For data set [3] the following is noted: general statement, no test described; cited from earlier work.

As to `CN1C(=O)CN=C(c2ccccc2)c2cc(Cl)ccc21` [diazepam], the “chemical modification by UV spectrophotometry” value in data set [1] is reported as “no trace of modification”. Besides, in data set [2], the “chemical modification by infrared spectrophotometry” value was “no modification”.

Consider `CN1CC[C@]23c4c5ccc(O)c4O[C@H]2[C@@H](O)C=C[C@H]3[C@H]1C5` [morphine basic], for which, in data set [3], the “temperature of physical and chemical instability” value is ~200 °C.

Source of the values: patent US5643604A, “Parenteral dosage form” (Aplicaciones Farmaceuticas S.A. De C.V., priority 1990, dated 1997).
